These are yes or no findings as the source states them, for the method shown. Binding seen in cells or lysates may run through a third protein. Here binding means that the protein was enriched with, or labelled near, the bait; the list need not be complete.
Legend:
[1] = target: N-terminally TAP-tagged full-length Rpl4a (S. cerevisiae) (UniProt P10664); test: affinity purification with mass spectrometry; tandem-affinity purification of NTAP-Rpl4a, sole Rpl4 source in the RPL4 shuffle strain YBP15, from whole cell lysates; 50 mM Tris-HCl pH 7.5, 100 mM NaCl, 1.5 mM MgCl2, 5% glycerol, 0.1% NP-40; EGTA eluates, Coomassie, mass spectrometry
[2] = target: N-terminally TAP-tagged Rpl4a.N264 (S. cerevisiae) (UniProt P10664); test: affinity purification with mass spectrometry; tandem-affinity purification of NTAP-Rpl4a.N264 and NTAP-Rpl4a.N291 from whole cell lysates of wild-type yeast; 50 mM Tris-HCl pH 7.5, 100 mM NaCl, 1.5 mM MgCl2, 5% glycerol, 0.1% NP-40; EGTA eluates, SDS-PAGE, Coomassie, bands identified by mass spectrometry
[3] = target: N-terminally TAP-tagged Rpl4a.N291 (S. cerevisiae) (UniProt P10664); test: as above

Protein sequences, listed by entry. Tags and fused reporters are not part of them. Lines headed by an entry give the natural chain unless they say otherwise; changes in a name come on top. Chains listed by the source or under a name are the forms on record and can include a tag or linker. Residues count along the entry.
UniProt P10664: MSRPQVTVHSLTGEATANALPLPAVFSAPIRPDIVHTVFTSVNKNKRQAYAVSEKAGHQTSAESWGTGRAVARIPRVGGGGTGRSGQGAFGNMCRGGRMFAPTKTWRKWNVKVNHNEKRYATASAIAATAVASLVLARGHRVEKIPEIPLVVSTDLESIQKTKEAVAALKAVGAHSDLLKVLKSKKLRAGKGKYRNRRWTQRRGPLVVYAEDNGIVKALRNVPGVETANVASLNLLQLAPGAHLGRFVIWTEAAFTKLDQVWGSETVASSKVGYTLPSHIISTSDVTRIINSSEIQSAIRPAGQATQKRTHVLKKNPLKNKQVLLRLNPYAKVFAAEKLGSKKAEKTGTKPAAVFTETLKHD
N-terminally TAP-tagged Rpl4a.N291: residues 1-291 of P10664
N-terminally TAP-tagged Rpl4a.N264: residues 1-264 of P10664

- binding [1]: binds
- binding [2]: binds
- binding [3]: binds
B1: Acl4 (Assembly Chaperone of RpL4) (protein, UniProt Q03771 1-387)
chain: MSELEATIRQAKEALAENNAKKALKILKPFKSSLKKENANNVILNEVFADAYLDNGQVEKAYPILARACELDPEGQVGGPDKFFTMGQIMGGQDGVSIITRGIMNISNTGGEMLTNVQVEKIVGGLLSVIEIWMTDLCMEPNAEEQCEELIQKAMELTEGKSPETWSTLGSIKISQQKFGEAYEAFSQAWNFFELKKQEIGSGINENGDTTQKAGLQSEYVDLLQPLLSLTKMCLEVGAYEVALKVIAAVRDIDEDNIEGYYLEGFTYYLMSKLEIFKLNNPEVSLRPENIYEFNQLIQEVPLDLSHEPISQLIYDSRLALSFALQAGVNADSKDEIVQELLGGANALLQEIGGPLDPSELTQIKKGDLVNENEDLEELDIEEEYSD
